# Measured values: the supplement of paper PMC3334620
# The full ranking holds about 33,000 sequences; the median of “E-score (-0.5 to 0.5)” is about -0.016, and the highest 2% start at about 0.3. The list shows a part of the results.
# Biological target: T1, Yer184c (UniProt P39961)
# T1 sequence: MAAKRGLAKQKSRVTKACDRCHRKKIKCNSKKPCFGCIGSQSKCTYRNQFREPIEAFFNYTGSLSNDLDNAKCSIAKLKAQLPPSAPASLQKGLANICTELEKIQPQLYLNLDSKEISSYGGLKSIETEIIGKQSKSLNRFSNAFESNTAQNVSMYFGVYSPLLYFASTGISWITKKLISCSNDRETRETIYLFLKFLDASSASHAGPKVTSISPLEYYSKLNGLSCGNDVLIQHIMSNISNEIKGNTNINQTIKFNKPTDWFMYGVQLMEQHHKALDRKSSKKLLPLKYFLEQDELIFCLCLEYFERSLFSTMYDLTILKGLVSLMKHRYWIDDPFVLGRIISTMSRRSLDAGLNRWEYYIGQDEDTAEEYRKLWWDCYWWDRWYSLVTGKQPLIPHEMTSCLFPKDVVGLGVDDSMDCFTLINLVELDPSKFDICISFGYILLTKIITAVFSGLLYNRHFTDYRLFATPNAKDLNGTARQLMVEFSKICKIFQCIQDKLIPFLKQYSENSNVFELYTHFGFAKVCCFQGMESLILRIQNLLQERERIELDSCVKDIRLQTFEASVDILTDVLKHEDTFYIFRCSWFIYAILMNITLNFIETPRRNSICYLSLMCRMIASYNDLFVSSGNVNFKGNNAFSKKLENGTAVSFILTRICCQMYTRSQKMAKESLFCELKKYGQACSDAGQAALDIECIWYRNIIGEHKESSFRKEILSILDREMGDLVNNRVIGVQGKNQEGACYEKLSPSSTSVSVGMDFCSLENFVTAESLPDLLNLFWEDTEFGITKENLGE
# Assay: PBM E-score (8-mer binding enrichment) (E-score (-0.5 to 0.5)); higher = stronger / more preferred TF binding
# Conditions: protein concentration: 100 nM; construct: GST-full length
# How it was run: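 Masliner-normalised scans of fluorescent anti-GST signal were the basis for scoring. That signal came from GST-tagged yeast transcription factors applied at about 100-200 nM to double-stranded universal all-10-mer Agilent arrays on fresh or once-stripped slides. Each ungapped eight-base word, pooled with its reverse complement, received an E-score from the Universal PBM Analysis Suite.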
row,Sequence,PBM E-score
1,CAGTGGAA,-0.114
2,GTTACGCA,-0.193
3,CCGCATCA,-0.00437
4,ATACGCTG,-0.0886
5,ATTCTATA,0.136
6,TCCTATCA,-0.135
7,CATGGGCG,-0.0541
8,CTAAGGTC,-0.265
9,GGACGAGA,0.0132
10,CTACAAGC,-0.0551
11,GGTAGCGA,-0.0503
12,CTCGTTCC,-0.0129
13,ACAAAATG,0.102
14,CGAGACCA,0.0505
15,CGTCACAA,0.103
16,ATTCGTAA,0.111
17,GATACCGC,0.0794
18,ATCATGTA,0.00394
19,CAGTTAGA,-0.0352
20,GCCTGAGA,0.0005
21,AAGAACTC,0.0694
22,ATGTCATG,0.128

# Look-ups from the results shown:
# In PBM E-score, CCGCATCA has -0.00437
# In PBM E-score, ATGTCATG has 0.128
# In PBM E-score, CGAGACCA has 0.0505

# The listing continues.

row,Sequence,PBM E-score
1,GCAAGCAC,-0.278
2,TATACACA,0.0954
3,CATATGTA,-0.123
4,GACGTAGC,-0.225
5,ACGCTACG,-0.104
6,CTGTCCTC,-0.197
7,GTCAGGTA,-0.0961
8,ATAGAGCA,0.0523
9,GTATGTGA,0.0229
10,CGTAAACA,0.145
11,CTTCATTA,0.17
12,AGCTGACG,-0.142
13,GGACCAAC,-0.0189
14,TAGCTTCA,-0.132
15,CGACATGA,0.0941
16,TAGTGATA,-0.199
17,CTACTTCC,0.156
18,AAATGGGC,-0.138
19,CGAGGTAC,-0.0351
20,ATATTCTA,0.205
21,TGTATACA,0.243
22,GTGCATTA,0.0431

row,Sequence,PBM E-score
1,GCAGCCTA,-0.0954
2,ATTTAAGC,0.178
3,CGAATCCA,0.00735
4,TCCCTTCA,-0.0303
5,ACACCCAG,-0.22
6,AATAAGGG,-0.104
7,CTATCCAA,-0.206
8,AACATCGG,0.134
9,CACATCGG,-0.0256
10,GGCACCTA,-0.115
11,AGCATCTA,-0.167
12,AGAGAATA,0.0273
13,AAACATTG,-0.0276
14,AGTCGAGC,-0.266
15,AGTAATTC,0.243
16,AGCGCATG,-0.211
17,CATTAGCG,-0.128
18,AGCAGAAA,0.152
19,ATGCTCAG,-0.0136
20,AGAGATGA,-0.00076
21,GTTCATGA,0.171
22,CTCAATAC,0.0593

row,Sequence,PBM E-score
1,ATGAAGCA,-0.0497
2,ACTTTGAC,0.151
3,GATTCCTA,0.00947
4,ACTAGAAA,-0.00189
5,AACCCAAC,-0.102
6,TAGTCCCA,-0.186
7,GGAGATGA,0.0659
8,AAACGAAC,0.198
9,CGCTACCA,-0.157
10,TACGAGCA,-0.156
11,CAACACCA,-0.113
12,GGTGATGA,-0.0976
13,GGTCAACA,0.0649
14,CATCAACC,-0.00043
15,CATTTTGC,0.0771
16,AGGGATAC,-0.124
17,AACCAGCG,0.0254
18,GTTGCTGA,0.0495
19,CCTTTTCC,-0.0798
20,ACAAACAC,0.17
